Earlier results, collected in US20060039865A1, “Pharmaceutical compositions and methods for the prevention of drug misuse” (priority 2004, published 2006).

Details: list of urine indicators given by way of example; suffixes (H), (OS), (AC), (AL) not explained

**Q.** Which “COLOR (urine color caused by the indicator)” value (shortened to “COLOR”) does the source give for `CCOc1ccc(/N=N/c2ccc(N)cc2N)cc1` [Ethoxazene] here?
**A.** Its value is “orange, red, orange-red, pink”.

**Q.** Which “COLOR” value does the source give for `Cc1cc(-c2ccc(/N=N/c3ccc4c(S(=O)(=O)O)cc(S(=O)(=O)O)c(N)c4c3O)c(C)c2)ccc1/N=N/c1ccc2c(S(=O)(=O)O)cc(S(=O)(=O)O)c(N)c2c1O` [Evans blue] here?
**A.** Its value is “blue”.

**Q.** Which “COLOR” value does the source give for `CN(C)c1ccc2nc3ccc(=[N+](C)C)cc-3sc2c1` [Methylene blue] here?
**A.** The value was “blue, green, blue-green, yellow-brown,”.

**Q.** With `Nc1ccc(/N=N/c2ccccc2)c(N)n1` [Phenazopyridine] as the molecule, how does the “COLOR” value read?
**A.** Its value is “orange”.

**Q.** Which “COLOR” value does the source give for `O=C1OC(c2ccc(O)cc2)(c2ccc(O)cc2)c2ccccc21` [Phenolphthalein(AL), Phenolphthalein] here?
**A.** Its value is “pink, red, red-brown”.

**Q.** Which “COLOR” value does the source give for `O=S1(=O)OC(c2ccc(O)cc2)(c2ccc(O)cc2)c2ccccc21` [Phenolsulfonphthalein(AL), Phenolsulfonphthalein] here?
**A.** Its value is “red, red-purple”.

**Q.** Which “COLOR” value does the source give for Eosin dyes [Eosin dyes(H)] here?
**A.** Its value is “brown, red, pink”.

**Q.** With Ferrous salts as the molecule, how does the “COLOR” value read?
**A.** Its value is “black, dark”.

**Q.** Which “COLOR” value does the source give for Melanin [Melanin(OS)] here?
**A.** The value was “black, dark”.

Same assay, conditions: list of urine indicators given by way of example; suffixes (H), (OS), (AC), (AL) not explained; listed as Phenazopyridine(AC)

**Q.** With `Nc1ccc(/N=N/c2ccccc2)c(N)n1` [Phenazopyridine] as the molecule, how does the “COLOR” value read?
**A.** The value was “orange-red, red, orange”.
